Measured values as given in patent US20130203116.

Chains of the proteins cited; added tags and fusions are not shown. Lines headed by an entry give the natural chain unless they say otherwise; changes in a name come on top. Chains listed by the source or under a name are the forms on record and can include a tag or linker. Residues count along the entry.
UniProt P51587, whole entry: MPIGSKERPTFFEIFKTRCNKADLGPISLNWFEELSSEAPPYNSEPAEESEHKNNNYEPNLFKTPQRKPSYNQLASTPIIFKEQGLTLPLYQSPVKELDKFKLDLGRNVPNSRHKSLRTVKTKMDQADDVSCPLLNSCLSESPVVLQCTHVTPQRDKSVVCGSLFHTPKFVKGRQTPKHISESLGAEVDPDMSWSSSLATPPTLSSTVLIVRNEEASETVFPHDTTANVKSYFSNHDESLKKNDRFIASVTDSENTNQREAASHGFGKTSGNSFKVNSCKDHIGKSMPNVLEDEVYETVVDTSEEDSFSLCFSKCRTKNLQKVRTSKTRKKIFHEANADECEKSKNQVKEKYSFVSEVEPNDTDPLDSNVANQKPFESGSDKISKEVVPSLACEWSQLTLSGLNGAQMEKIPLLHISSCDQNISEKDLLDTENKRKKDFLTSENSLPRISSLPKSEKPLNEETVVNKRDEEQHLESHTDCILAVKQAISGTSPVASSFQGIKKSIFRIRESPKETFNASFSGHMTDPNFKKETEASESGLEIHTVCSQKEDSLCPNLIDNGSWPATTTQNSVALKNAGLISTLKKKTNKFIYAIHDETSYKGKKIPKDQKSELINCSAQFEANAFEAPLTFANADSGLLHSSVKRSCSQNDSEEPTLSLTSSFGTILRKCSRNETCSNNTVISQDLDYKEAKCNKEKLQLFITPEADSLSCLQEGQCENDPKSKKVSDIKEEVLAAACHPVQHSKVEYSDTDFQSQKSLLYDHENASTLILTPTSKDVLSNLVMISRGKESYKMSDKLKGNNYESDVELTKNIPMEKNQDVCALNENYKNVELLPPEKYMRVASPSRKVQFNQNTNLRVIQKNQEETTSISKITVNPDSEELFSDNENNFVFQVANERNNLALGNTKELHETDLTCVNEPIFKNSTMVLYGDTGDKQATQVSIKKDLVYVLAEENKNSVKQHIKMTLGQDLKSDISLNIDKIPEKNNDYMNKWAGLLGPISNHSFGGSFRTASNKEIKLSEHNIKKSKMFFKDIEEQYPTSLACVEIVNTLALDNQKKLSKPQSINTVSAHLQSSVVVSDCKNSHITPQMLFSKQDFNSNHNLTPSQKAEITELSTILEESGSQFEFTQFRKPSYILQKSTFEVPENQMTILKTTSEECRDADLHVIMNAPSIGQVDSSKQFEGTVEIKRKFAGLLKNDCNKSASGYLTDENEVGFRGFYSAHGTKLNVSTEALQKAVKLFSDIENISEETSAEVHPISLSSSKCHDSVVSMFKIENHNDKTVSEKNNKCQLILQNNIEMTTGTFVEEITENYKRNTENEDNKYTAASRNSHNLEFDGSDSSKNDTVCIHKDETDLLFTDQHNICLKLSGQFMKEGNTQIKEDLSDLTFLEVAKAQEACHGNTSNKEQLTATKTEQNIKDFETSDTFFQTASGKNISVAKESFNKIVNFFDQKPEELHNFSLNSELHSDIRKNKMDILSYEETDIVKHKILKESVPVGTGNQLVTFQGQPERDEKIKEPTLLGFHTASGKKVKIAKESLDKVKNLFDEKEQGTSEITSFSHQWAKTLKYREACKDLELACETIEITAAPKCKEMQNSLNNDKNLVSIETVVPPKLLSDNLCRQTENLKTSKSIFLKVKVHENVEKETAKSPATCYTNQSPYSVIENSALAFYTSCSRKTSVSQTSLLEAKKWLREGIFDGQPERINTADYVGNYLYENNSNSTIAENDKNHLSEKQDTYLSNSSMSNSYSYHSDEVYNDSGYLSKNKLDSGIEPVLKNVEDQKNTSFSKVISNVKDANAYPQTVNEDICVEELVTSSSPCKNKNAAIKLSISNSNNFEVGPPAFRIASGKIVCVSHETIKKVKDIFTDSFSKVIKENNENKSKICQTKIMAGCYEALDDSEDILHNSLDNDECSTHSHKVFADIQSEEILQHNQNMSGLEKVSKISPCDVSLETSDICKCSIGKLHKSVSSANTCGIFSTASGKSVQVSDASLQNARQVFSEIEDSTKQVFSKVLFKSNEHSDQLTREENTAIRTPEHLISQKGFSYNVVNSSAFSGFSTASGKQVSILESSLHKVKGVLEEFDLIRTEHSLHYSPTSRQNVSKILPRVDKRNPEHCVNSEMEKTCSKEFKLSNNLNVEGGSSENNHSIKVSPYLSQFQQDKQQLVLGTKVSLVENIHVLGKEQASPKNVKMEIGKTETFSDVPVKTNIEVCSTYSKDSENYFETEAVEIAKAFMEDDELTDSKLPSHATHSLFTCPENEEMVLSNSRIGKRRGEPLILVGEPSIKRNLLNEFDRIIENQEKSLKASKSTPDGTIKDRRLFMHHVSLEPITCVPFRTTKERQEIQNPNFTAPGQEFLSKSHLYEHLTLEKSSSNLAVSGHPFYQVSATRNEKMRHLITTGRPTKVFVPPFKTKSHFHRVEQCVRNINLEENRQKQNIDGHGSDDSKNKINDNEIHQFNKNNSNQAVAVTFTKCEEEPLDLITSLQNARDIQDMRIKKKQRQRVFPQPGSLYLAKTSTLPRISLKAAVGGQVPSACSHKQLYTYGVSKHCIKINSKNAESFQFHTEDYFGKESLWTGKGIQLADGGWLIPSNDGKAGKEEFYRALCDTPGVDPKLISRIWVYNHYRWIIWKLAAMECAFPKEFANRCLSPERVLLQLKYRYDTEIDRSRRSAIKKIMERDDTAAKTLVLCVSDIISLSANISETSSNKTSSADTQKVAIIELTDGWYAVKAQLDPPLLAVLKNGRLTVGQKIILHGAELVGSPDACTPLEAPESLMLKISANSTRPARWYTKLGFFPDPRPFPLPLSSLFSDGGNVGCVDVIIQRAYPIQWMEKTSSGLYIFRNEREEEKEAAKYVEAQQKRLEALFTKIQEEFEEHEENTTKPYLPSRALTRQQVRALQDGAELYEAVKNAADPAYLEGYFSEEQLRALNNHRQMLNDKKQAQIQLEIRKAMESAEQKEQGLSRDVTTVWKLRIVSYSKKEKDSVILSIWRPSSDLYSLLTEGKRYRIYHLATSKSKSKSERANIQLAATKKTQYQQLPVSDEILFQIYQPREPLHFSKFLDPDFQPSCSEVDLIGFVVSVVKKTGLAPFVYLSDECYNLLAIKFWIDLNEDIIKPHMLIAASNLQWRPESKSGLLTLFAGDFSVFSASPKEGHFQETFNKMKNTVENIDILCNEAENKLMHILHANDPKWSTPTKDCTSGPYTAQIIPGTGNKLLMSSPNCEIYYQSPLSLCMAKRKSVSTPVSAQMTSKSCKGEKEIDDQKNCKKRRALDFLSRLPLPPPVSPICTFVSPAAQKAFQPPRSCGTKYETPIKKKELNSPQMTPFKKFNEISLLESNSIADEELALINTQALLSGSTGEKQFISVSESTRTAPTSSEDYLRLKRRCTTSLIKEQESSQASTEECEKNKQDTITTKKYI
UniProt Q06609, 2-339: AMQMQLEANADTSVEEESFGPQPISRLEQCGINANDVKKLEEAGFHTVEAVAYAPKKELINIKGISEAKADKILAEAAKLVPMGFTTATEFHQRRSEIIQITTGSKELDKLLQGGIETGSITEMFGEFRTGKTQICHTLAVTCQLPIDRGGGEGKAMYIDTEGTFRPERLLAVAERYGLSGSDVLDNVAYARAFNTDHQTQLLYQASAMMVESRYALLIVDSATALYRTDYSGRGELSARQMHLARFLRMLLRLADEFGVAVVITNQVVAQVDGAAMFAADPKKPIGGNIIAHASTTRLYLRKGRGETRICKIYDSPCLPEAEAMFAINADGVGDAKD
UniProt P43351: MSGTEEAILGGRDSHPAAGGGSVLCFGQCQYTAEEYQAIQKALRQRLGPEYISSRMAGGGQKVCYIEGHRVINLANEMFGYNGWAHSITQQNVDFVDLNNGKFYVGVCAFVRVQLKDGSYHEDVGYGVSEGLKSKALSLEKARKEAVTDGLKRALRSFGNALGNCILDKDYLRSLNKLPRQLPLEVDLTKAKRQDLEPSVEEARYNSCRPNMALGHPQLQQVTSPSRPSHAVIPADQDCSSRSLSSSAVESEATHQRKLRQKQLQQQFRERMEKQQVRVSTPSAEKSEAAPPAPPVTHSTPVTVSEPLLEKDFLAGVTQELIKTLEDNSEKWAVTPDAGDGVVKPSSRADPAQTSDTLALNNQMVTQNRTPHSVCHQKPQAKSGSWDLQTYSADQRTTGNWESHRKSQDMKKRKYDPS
RPA (Homo sapiens), one chain, as listed by the source, chain 3 of 3: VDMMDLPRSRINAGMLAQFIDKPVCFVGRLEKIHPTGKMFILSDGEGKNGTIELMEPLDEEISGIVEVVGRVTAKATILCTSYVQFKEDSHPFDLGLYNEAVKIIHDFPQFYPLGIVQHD
RPA (Homo sapiens), one chain, as listed by the source, chain 1 of 3: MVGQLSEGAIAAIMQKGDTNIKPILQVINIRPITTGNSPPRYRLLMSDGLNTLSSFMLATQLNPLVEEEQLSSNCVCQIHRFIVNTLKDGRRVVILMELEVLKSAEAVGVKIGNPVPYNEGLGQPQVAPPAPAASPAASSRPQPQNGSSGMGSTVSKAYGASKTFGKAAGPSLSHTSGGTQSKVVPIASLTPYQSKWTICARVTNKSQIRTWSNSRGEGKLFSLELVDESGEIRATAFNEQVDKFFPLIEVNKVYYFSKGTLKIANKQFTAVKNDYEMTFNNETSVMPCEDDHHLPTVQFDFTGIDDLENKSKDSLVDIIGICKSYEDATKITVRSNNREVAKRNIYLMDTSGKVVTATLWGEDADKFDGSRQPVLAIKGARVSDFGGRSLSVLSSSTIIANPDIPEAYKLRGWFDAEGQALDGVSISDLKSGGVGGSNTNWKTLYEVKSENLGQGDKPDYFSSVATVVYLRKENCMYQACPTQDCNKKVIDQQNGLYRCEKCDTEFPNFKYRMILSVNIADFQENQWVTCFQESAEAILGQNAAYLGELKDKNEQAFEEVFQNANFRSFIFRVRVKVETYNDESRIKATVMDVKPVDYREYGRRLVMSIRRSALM
RPA (Homo sapiens), one chain, as listed by the source, chain 2 of 3: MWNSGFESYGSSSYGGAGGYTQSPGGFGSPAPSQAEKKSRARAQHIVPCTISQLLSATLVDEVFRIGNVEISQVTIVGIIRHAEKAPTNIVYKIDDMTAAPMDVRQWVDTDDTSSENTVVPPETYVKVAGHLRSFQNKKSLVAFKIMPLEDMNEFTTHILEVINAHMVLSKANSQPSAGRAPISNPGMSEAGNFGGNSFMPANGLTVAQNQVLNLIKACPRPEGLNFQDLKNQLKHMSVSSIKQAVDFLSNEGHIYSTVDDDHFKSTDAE

What was measured:
[1] = biological target: BRCA2 (2XMBP-BRCA2, full length) (Homo sapiens) (UniProt P51587); assay: EMSA; settings: bound but much weaker than ssDNA or tailed DNA; 1 mM MgCl2, 2 mM CaCl2, 2 mM ATP, 37 C; purified recombinant protein; label: 5'-32P on RJ-Oligo1
[2] = biological target: RAD51 (Homo sapiens) (UniProt Q06609); assay: activity assay; settings: purified recombinant protein
[3] = biological target: RAD52 (Homo sapiens) (UniProt P43351); assay: activity assay; settings: ssDNA annealing clearly increased; also anneals RPA-ssDNA complexes; 100 nM RAD52, 1 mM MgCl2; purified recombinant protein; protein details: gift from Alex Mazin; label: 5'-32P on RJ-Oligo1
[4] = system: RPA (Homo sapiens); assay: inhibition of the protein; settings: purified recombinant protein

“TAATACAAAATAAGTAAATGAATAAACAGAGAAAATAAAG (double strand) [dsDNA (RJ-Oligo1/RJ-Oligo2)]”: binds more weakly [1].
With “CTGCTTTATCAAGATAATTTTTCGACTCATCAGAAATATCCGTTTCCTATATTTATTCCTATTATGTTTTATTCATTTACTTATTCTTTATGTTCATTTTTTATATCCTTTACTTTATTTTCTCTGTTTATTCATTTACTTATTTTGTATTATCCTTATCTTATTTA [RJ-167-mer ssDNA]” the “activity on this sequence” value ([2]; DNA strand exchange on RPA-coated ssDNA, BRCA2 stimulation about 2-fold lower than with tailed DNA, label: 5'-32P (EMSA), single-stranded DNA) was “active”.
With “TAATACAAAATAAGTAAATGAATAAACAGAGAAAATAAAG / CTGCTTTATCAAGATAATTTTTCGACTCATCAGAAATATCCGTTTCCTATATTTATTCCTATTATGTTTTATTCATTTACTTATTCTTTATGTTCATTTTTTATATCCTTTACTTTATTTTCTCTGTTTATTCATTTACTTATTTTGTATTATCCTTATCTTATTTA [RJ-Oligo1 + RJ-167-mer annealing pair]” the “activity on this sequence” value [3] was “active” and the “activity on this sequence” value ([4]; RPA (100 nM) completely blocks spontaneous annealing, label: 5'-32P on RJ-Oligo1) was “active”.
In the case of “CTGCTTTATCAAGATAATTTTTCGACTCATCAGAAATATCCGTTTCCTATATTTATTCCTATTATGTTTTATTCATTTACTTATTCTTTATGTTCATTTTTTATATCCTTTACTTTATTTTCTCTGTTTATTCATTTACTTATTTTGTATTATCCTTATCTTATTTA / CGGATATTTCTGATGAGTCGAAAAATTATCTTGATAAAGCAG [3' tailed DNA (RJ-167-mer/RJ-PHIX-42-1)]”, the “activity on this sequence” value ([4]; RPA precoating of tailed DNA severely impairs RAD51 strand exchange, label: 5'-32P on 167-mer (EMSA)) is reported as “active”.
For “ATTTATTCTATTCCCTTTATTTTCTCTGTTTATTCATTTACTTATTTTGTATTAATTTCCTATATTTTTTACTTGTATTTCTTATTCATTTACTTATTTTGTATTATCCTTATTTATATCCTTTCTGCTTTATCAAGATAATTTTTCGACTCATCAGAAATATCCG / CGGATATTTCTGATGAGTCGAAAAATTATCTTGATAAAGCAG [5' tailed DNA (RJ-5'TAIL-167-mer/RJ-PHIX-42-1)]”, the “activity on this sequence” value ([2]; DNA strand exchange on RPA-coated 5' tail, stimulated by BRCA2 like 3' tail, label: 5'-32P on 167-mer (EMSA)) was “active”.

For part of these data: A weaker result is weaker than the reference pair of the same experiment.
